Measurements as given in the supplement of paper PMC12819154, “High-throughput peptide-centric local stability assay extends protein–ligand identification to membrane proteins, tissues and bacteria” (Nature Structural & Molecular Biology, 2025).
This is one part of the list. Most values lie at the level of the controls, where differences are scatter.

Chains of the proteins cited; added tags and fusions are not shown. Lines headed by an entry give the natural chain unless they say otherwise; changes in a name come on top.
UniProt O43432, whole entry: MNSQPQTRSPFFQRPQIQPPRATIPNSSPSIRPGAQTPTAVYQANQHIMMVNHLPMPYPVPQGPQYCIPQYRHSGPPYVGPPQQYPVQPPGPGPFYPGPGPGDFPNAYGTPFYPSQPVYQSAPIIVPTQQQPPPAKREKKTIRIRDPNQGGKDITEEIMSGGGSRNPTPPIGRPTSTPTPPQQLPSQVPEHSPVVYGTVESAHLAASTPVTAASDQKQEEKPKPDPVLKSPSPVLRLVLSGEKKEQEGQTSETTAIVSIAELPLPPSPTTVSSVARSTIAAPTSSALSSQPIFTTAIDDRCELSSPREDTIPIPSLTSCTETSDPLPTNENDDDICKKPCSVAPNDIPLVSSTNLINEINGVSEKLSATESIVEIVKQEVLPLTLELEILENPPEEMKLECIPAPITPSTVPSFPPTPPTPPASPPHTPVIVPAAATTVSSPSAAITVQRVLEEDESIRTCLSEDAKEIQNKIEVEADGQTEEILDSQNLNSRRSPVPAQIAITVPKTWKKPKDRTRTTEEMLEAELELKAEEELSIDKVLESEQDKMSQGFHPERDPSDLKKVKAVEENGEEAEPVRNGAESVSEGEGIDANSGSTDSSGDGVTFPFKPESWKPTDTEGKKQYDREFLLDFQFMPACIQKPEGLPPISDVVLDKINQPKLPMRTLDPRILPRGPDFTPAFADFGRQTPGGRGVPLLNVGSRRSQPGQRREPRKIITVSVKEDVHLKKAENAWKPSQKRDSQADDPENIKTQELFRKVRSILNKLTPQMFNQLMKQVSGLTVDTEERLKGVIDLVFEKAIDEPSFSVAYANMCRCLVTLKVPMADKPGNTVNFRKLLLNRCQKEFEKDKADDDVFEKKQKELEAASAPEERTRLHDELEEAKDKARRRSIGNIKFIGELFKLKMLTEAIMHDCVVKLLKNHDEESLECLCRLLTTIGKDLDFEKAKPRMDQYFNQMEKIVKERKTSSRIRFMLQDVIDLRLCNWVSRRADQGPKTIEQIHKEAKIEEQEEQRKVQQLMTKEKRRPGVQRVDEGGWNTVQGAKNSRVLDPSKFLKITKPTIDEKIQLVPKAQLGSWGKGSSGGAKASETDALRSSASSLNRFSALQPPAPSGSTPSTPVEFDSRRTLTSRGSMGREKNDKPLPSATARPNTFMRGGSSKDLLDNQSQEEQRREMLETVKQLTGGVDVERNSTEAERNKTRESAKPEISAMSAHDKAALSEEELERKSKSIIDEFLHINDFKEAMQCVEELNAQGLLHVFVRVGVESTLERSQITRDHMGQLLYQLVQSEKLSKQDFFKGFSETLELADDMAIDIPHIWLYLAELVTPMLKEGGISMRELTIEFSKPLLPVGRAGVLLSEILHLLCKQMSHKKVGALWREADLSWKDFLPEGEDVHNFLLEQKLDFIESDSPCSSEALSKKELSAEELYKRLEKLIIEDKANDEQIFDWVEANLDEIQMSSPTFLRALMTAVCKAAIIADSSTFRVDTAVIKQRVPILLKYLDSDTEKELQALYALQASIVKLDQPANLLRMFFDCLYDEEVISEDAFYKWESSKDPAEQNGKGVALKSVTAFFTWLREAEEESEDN
UniProt O43765: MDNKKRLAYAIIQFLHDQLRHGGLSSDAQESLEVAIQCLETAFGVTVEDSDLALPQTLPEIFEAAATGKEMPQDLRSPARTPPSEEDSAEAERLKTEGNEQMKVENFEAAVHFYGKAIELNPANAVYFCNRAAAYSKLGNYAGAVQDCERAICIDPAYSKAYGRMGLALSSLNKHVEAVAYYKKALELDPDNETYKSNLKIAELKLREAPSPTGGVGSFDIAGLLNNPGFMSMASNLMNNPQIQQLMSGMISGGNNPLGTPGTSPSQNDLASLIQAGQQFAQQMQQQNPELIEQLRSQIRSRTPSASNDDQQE
UniProt O60551: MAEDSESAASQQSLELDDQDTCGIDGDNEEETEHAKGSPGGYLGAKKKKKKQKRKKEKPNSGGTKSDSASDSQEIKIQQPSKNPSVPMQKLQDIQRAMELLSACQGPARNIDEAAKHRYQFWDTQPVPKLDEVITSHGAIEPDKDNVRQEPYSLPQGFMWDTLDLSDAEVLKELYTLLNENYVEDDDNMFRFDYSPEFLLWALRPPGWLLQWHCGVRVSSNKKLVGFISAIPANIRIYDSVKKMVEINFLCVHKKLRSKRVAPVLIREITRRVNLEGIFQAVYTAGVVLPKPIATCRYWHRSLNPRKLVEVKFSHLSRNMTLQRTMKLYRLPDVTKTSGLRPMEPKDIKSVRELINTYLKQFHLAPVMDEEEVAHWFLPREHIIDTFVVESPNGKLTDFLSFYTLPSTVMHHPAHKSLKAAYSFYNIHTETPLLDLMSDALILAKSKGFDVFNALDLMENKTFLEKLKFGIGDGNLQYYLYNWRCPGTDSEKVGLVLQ
UniProt O60829: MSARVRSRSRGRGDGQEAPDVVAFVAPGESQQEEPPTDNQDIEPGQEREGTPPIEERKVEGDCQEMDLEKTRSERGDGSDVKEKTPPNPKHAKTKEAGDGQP
UniProt O43752: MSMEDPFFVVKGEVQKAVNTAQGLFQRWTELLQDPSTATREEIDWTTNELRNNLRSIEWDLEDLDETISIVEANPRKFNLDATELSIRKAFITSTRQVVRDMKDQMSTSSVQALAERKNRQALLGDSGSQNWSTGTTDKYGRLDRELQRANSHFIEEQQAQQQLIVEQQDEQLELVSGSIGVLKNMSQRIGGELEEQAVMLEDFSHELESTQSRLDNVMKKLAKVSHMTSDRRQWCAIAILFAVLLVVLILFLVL
UniProt O75064: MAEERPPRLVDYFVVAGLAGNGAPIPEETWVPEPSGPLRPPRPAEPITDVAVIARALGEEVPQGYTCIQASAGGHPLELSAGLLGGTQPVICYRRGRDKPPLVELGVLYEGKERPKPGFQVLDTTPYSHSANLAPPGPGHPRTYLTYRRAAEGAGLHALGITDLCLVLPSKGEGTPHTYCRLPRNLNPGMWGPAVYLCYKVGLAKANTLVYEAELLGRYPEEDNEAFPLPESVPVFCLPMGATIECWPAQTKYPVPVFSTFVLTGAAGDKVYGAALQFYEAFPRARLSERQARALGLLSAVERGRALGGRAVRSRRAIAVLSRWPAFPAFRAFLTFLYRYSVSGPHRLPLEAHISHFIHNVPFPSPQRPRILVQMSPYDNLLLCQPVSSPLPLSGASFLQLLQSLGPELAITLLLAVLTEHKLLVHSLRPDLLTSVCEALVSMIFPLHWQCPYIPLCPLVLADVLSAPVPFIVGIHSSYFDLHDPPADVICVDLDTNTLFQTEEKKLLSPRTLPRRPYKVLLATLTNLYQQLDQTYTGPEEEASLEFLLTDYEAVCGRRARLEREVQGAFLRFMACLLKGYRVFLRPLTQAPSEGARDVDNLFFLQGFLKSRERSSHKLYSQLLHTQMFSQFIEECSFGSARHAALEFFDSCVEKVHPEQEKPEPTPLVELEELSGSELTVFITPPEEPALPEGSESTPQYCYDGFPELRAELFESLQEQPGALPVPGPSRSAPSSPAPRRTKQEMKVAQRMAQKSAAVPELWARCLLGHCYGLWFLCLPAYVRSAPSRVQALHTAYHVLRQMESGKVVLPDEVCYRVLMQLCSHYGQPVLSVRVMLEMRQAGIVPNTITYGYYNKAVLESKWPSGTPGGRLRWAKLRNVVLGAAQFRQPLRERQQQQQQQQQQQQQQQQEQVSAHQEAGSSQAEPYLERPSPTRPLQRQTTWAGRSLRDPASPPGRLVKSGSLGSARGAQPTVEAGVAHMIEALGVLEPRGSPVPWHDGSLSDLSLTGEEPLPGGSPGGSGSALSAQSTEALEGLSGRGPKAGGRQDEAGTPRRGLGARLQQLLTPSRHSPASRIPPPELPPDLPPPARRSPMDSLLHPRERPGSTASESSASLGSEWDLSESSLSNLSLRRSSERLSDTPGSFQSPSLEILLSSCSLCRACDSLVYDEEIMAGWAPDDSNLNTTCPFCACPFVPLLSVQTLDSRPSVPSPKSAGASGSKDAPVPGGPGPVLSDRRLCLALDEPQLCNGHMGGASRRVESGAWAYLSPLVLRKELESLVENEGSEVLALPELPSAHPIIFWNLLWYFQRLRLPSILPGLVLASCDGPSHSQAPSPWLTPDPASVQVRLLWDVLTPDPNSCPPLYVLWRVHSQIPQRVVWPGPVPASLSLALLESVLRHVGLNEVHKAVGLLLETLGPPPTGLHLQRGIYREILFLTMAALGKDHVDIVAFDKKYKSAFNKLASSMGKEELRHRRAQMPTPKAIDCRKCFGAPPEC
UniProt O60841: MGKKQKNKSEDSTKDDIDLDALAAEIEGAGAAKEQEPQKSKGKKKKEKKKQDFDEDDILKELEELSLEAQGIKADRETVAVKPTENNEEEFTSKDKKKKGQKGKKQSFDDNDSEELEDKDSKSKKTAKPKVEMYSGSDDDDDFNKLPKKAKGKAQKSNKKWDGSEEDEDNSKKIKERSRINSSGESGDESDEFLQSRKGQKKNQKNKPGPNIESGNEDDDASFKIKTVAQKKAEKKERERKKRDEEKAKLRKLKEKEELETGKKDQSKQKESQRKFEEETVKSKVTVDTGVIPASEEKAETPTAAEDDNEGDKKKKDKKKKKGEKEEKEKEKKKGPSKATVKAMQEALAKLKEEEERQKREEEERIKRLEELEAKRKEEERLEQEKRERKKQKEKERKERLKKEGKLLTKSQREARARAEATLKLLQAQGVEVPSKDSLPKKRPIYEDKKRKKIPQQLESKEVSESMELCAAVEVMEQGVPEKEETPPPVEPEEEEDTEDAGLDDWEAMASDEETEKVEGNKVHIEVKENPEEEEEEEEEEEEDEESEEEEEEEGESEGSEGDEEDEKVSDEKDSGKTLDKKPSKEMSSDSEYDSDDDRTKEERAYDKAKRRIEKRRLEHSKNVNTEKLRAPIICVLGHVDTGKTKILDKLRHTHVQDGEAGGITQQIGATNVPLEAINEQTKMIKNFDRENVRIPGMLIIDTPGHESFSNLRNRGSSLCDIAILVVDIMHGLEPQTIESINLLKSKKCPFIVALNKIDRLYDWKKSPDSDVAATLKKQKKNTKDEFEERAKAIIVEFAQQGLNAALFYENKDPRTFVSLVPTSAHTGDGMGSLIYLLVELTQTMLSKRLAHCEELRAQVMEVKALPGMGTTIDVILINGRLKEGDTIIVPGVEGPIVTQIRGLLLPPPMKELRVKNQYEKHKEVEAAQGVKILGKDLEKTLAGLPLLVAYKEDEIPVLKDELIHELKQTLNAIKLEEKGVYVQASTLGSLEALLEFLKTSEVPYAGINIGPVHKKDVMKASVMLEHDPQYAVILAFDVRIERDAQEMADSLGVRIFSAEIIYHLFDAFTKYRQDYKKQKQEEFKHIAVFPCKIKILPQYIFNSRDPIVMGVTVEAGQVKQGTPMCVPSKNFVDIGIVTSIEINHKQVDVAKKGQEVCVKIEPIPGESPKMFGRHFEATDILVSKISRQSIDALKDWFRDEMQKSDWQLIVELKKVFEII
UniProt O43189: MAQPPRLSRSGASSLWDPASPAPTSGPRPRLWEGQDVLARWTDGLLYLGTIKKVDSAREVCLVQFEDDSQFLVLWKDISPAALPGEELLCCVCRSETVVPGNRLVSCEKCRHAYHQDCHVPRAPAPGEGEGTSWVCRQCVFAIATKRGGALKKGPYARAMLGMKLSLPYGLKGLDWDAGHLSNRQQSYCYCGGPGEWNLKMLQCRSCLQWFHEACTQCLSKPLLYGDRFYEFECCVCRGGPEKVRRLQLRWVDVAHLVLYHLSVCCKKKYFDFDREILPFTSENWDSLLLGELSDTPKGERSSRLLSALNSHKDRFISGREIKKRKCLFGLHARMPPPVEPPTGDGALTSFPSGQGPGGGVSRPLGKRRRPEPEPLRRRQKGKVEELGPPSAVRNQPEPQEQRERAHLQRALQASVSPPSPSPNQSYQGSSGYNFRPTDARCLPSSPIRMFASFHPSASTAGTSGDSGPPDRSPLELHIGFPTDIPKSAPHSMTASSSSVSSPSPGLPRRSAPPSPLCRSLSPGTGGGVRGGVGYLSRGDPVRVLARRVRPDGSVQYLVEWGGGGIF

Compound: Cc1nc(Nc2ncc(C(=O)Nc3c(C)cccc3Cl)s2)cc(N2CCN(CCO)CC2)n1 [dasatinib]
Assay: log2 fold change of tryptic peptide abundance, ligand vs vehicle (limited proteolysis) (log2 ratio); higher = more trypsin-susceptible (destabilized)
Conditions: ligand concentration: 5 uM; sample: K562 cleared lysate

Target	log2 fold change
PDCD6 (peptide sequence: SIISMFDRENK, peptide start residue: 67) (UniProt O75340)	0.106
DUSP11 (peptide sequence: YSWNVKPNASR, peptide start residue: 341) (UniProt O75319)	0.152
RGS14 (peptide sequence: LQEALQPILEK, peptide start residue: 396) (UniProt O43566)	-0.0642
UniProt O60341 (peptide sequence: IKPLPTKK, peptide start residue: 270)	-0.139
UniProt O60381 (peptide sequence: AISVILGDR, peptide start residue: 463)	0.271
CBFA2T2 (peptide sequence: YCGSFCQHKDWER, peptide start residue: 526) (UniProt O43439)	-1.76
UniProt O43432 (peptide sequence: RRPGVQR, peptide start residue: 1023)	-0.694
UniProt O43156 (peptide sequence: QGHSIVVSSLK, peptide start residue: 227)	0.712
PRC1 (peptide sequence: LPPSGSKPVAASTCSGK, peptide start residue: 518) (UniProt O43663)	1.5
UniProt O60524 (peptide sequence: LASKEESSNSSDSK, peptide start residue: 796)	0.231
FLNB (peptide sequence: YADEEIPR, peptide start residue: 1497) (UniProt O75369)	-0.337
UniProt O75344 (peptide sequence: DYVDKEK, peptide start residue: 117)	0.52
CHMP2A (peptide sequence: IMMEFER, peptide start residue: 125) (UniProt O43633)	0.0887
VPS4B (peptide sequence: KFTEDFGQEG, peptide start residue: 435) (UniProt O75351)	0.122
UniProt O43159 (peptide sequence: KWPLQPVDR, peptide start residue: 290)	-0.419
XRCC2 (peptide sequence: ASSSSEEPSHASR, peptide start residue: 202) (UniProt O43543)	0.164
DENR (peptide sequence: LDADYPLR, peptide start residue: 23) (UniProt O43583)	0.192
UniProt O43307 (peptide sequence: KLEEKIR, peptide start residue: 409)	-0.216
ACTN4 (peptide sequence: ICDQWDALGSLTHSRR, peptide start residue: 498) (UniProt O43707)	0.164
UniProt O43913 (peptide sequence: TYVTQTLLK, peptide start residue: 44)	0.149
UniProt O43309 (peptide sequence: SVLTEHQR, peptide start residue: 510)	-0.108

Target	log2 fold change
UniProt O60304 (peptide sequence: FSSQQPPAQLSHRPQR, peptide start residue: 176)	0.339
PRPF40A (peptide sequence: KEEEESQPAKK, peptide start residue: 376) (UniProt O75400)	-0.11
POLQ (peptide sequence: TSFPLQIK, peptide start residue: 1112) (UniProt O75417)	0.509
KIAA0513 (peptide sequence: KLCNDFLK, peptide start residue: 378) (UniProt O60268)	0.486
DHX15 (peptide sequence: ALVTGYFMQVAHLER, peptide start residue: 692) (UniProt O43143)	0.313
UniProt O60292 (peptide sequence: GCQALTELLR, peptide start residue: 234)	-0.304
DEPDC5 (peptide sequence: TFYDAKSVDEFPEINR, peptide start residue: 224) (UniProt O75140)	-0.247
MED7 (peptide sequence: VMMEVQKR, peptide start residue: 137) (UniProt O43513)	-0.189
UniProt O75396 (peptide sequence: ANNLSSLSKK, peptide start residue: 170)	0.174
TPST2 (peptide sequence: STDQVIKPVNLEALSK, peptide start residue: 285) (UniProt O60704)	-0.0101
GMDS (peptide sequence: TIVWEGKNENEVGR, peptide start residue: 295) (UniProt O60547)	0.409
TIMM44 (peptide sequence: YKTIESETVR, peptide start residue: 104) (UniProt O43615)	-0.208
CPNE3 (peptide sequence: SPLGEVAIR, peptide start residue: 476) (UniProt O75131)	-0.178
ZNF217 (peptide sequence: TGCPPALLGK, peptide start residue: 754) (UniProt O75362)	-0.364
MCM3AP (peptide sequence: IPGVNKEEETESR, peptide start residue: 390) (UniProt O60318)	-0.55
HNRNPR (peptide sequence: SFSEFGKLER, peptide start residue: 360) (UniProt O43390)	-0.102
PHGDH (peptide sequence: KILQDGGLQVVEK, peptide start residue: 21) (UniProt O43175)	-0.132
SGTA (peptide sequence: LAYAIIQFLHDQLR, peptide start residue: 7) (UniProt O43765)	-0.353
NMT2 (peptide sequence: IQQPSKNPSVPMQK, peptide start residue: 77) (UniProt O60551)	0.0875
PAGE4 (peptide sequence: KVEGDCQEMDLEK, peptide start residue: 58) (UniProt O60829)	0.116
PHF2 (peptide sequence: GSSLAAHGAR, peptide start residue: 822) (UniProt O75151)	-0.102

Random excerpt: 4 records from the list, in no set order.
Target	log2 fold change
RGS14 (peptide sequence: LQEALQPILEK, peptide start residue: 396) (UniProt O43566)	-0.0642
PHGDH (peptide sequence: KILQDGGLQVVEK, peptide start residue: 21) (UniProt O43175)	-0.132
VPS4B (peptide sequence: KFTEDFGQEG, peptide start residue: 435) (UniProt O75351)	0.122
KIAA0513 (peptide sequence: KLCNDFLK, peptide start residue: 378) (UniProt O60268)	0.486

Later entries.

Target	log2 fold change
WIPF1 (peptide sequence: NALLSDISK, peptide start residue: 34) (UniProt O43516)	-0.366
STX6 (peptide sequence: KFNLDATELSIRK, peptide start residue: 77) (UniProt O43752)	0.293
CCDC22 (peptide sequence: MEEADRILIHSLR, peptide start residue: 1) (UniProt O60826)	0.596
DENND4B (peptide sequence: RSPMDSLLHPR, peptide start residue: 1091) (UniProt O75064)	-0.365
SH3BP5 (peptide sequence: VMEAEQTK, peptide start residue: 166) (UniProt O60239)	-0.515
NDUFS6 (peptide sequence: VTHTGQVYDDKDYR, peptide start residue: 39) (UniProt O75380)	0.125
TACC1 (peptide sequence: IHAEEKLDK, peptide start residue: 735) (UniProt O75410)	-0.643
MRPL33 (peptide sequence: LTLLHYDPVVK, peptide start residue: 41) (UniProt O75394)	-0.102
EIF5B (peptide sequence: KNTKDEFEER, peptide start residue: 781) (UniProt O60841)	0.107
RANBP6 (peptide sequence: TIECISHIGLAVGK, peptide start residue: 565) (UniProt O60518)	0.567
TOM1 (peptide sequence: NNPPTIVHDK, peptide start residue: 107) (UniProt O60784)	0.746
UniProt O43402 (peptide sequence: SYETLVDFDNHLDDIR, peptide start residue: 179)	-0.225
KPNA6 (peptide sequence: VVDRFVEFLKR, peptide start residue: 125) (UniProt O60684)	-0.202
UniProt O43189 (peptide sequence: LSLPYGLK, peptide start residue: 165)	-0.107
RRP9 (peptide sequence: LKEDVLEQR, peptide start residue: 112) (UniProt O43818)	0.18
SEPTIN4 (peptide sequence: THMQDLK, peptide start residue: 292) (UniProt O43236)	-0.195
XPOT (peptide sequence: TYSDDHVK, peptide start residue: 46) (UniProt O43592)	-0.392
UniProt O60296 (peptide sequence: VYHSPISENPLQPLPK, peptide start residue: 754)	-0.533
MAFK (peptide sequence: GPVAPSK, peptide start residue: 124) (UniProt O60675)	0.0721
UniProt O43776 (peptide sequence: SPAGSIVHELNPNFQPPKRPFK, peptide start residue: 368)	0.392
PQBP1 (peptide sequence: GHDKSDRDR, peptide start residue: 134) (UniProt O60828)	-0.781
